PubChem BioAssay AID504784 – Drosophila RNAi Screening Center, 2011
In all, the deposit lists about 17,000 reagents; below is a random part of those that have a named target and a result. 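Each column is one replicate's B-score; the combined score over replicates was not deposited, so single values may mislead.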 A plus sign joins genes that one reagent is predicted to hit. Further read-outs or replicates are left out here.

- Purpose: 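Genome-wide knock-down for genes giving too much or too little stored lipid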 (primary screen)
- Cell system: Drosophila Kc167 embryonic cells
- Reagents: long dsRNA against Drosophila genes, about 250 ng dsRNA per well
- Timing: 4 days
- Conditions: cells fed 400 µM oleic acid bound to BSA
- Measured: 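Microscope images give a droplet-to-nucleus area ratio, taken as log and converted to a screen-wide B-score; higher values mean greater lipid storage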
- Scale: droplet/nuclear area B-score: higher = more stored lipid (overstorage)

| gene | dsRNA | droplet/nuclear area B-score, replicate 1 |
| --- | --- | --- |
| Cyp4ac3 | DRSC03304 | 3.95 |
| Gyc76C + CG42637 | DRSC11180 | -0.605 |
| CG31550 | DRSC12197 | -1.17 |
| CG31550 | DRSC12198 | 1.95 |
| CG14234 | DRSC19317 | -0.332 |
| CG14234 | DRSC19589 | 0.558 |
| CG32793 | DRSC18145 | -0.0182 |
| CG32793 | DRSC18194 | 1.28 |
| beg | DRSC10923 | 0.853 |
| CG13137 | DRSC02234 | -0.671 |
| CG7963 | DRSC16355 | -0.288 |
| Acp95EF | DRSC14102 | -1.5 |
| mRpL39 | DRSC10255 | 4.28 |
| nenya | DRSC13838 | 2.21 |
| CG9578 | DRSC20694 | -1.31 |
| CG3868 | DRSC10380 | 0.769 |
| PIG-A | DRSC06982 | 0.794 |
| CG14684 | DRSC14907 | -0.148 |
| Smr | DRSC19495 | -3.56 |
| Smr | DRSC20288 | 0.0716 |
| Smr | DRSC22986 | 0.517 |
| CG40282 (retired record) | DRSC07814 | 0.401 |
| nAChRalpha5 | DRSC01946 | 0.107 |
| nAChRalpha5 | DRSC01947 | -0.996 |
| nAChRalpha5 | DRSC22785 | 4.36 |
| dpr9 | DRSC14534 | -0.182 |
| dpr9 | DRSC14985 | -0.442 |
| dpr9 | DRSC14986 | -0.504 |
| VAChT | DRSC13311 | 2.11 |
| VAChT | DRSC16608 | -0.539 |
| Cyp305a1 | DRSC11126 | -1.67 |
| CG4259 | DRSC00645 | -0.503 |
| CG32021 (retired record) | DRSC17206 | -1.45 |
| Rnf146 | DRSC11045 | 2.34 |
| CG33489 | DRSC10588 | 0.032 |
| CG6769 | DRSC20006 | 0.221 |
| rnh1 | DRSC07673 | 3.76 |

The list goes on, starting with the last 7 of the part before.
| gene | dsRNA | droplet/nuclear area B-score, replicate 1 |
| --- | --- | --- |
| Cyp305a1 | DRSC11126 | -1.67 |
| CG4259 | DRSC00645 | -0.503 |
| CG32021 (retired record) | DRSC17206 | -1.45 |
| Rnf146 | DRSC11045 | 2.34 |
| CG33489 | DRSC10588 | 0.032 |
| CG6769 | DRSC20006 | 0.221 |
| rnh1 | DRSC07673 | 3.76 |
| jumu | DRSC16651 | 0.91 |
| CG13144 | DRSC02241 | -1.4 |
| AstC-R2 | DRSC10051 | -1.37 |
| CG15625 | DRSC00460 | -1.77 |
| mei-P22 | DRSC11366 | 1.81 |
| PH4alphaNE2 | DRSC16544 | 1.33 |
| CG3748 | DRSC02716 | 0.763 |
| CG7276 | DRSC10797 | 0.00373 |
| lncRNA:CR32385 | DRSC22966 | -0.359 |
| phol | DRSC10367 | 1.38 |
| Mec2 | DRSC20054 | -0.167 |
| Cyp309a1 | DRSC00747 | -1 |
| Stoml2 | DRSC04326 | 1.17 |
| Taf3 | DRSC17170 | 3.63 |
| CG3309 | DRSC18301 | -0.62 |
| betaNACtes6 | DRSC22925 | -1.96 |
| CG4701 | DRSC01952 | 2.61 |
| sced | DRSC04990 | -0.77 |
| CG7550 | DRSC10875 | -0.932 |
| Vha100-5 | DRSC02175 | -0.435 |
| osk | DRSC17023 | 0.0118 |
| Phk-3 | DRSC04547 | 0.423 |
| Irbp | DRSC17007 | -0.606 |
| Irbp | DRSC23317 | -1.07 |
| Ald2 | DRSC15799 | -0.843 |
| CG6927 | DRSC18407 | -0.185 |
| CG15255 | DRSC01869 | -0.00118 |
| DppIII | DRSC16241 | -0.464 |
| CG32457 | DRSC11596 | -2.11 |
| CG32457 | DRSC21722 | -0.205 |
| CG6443 | DRSC02958 | 1.07 |
| CG14227 | DRSC19584 | 0.964 |
| CG4882 | DRSC04495 | 1.84 |
| Hexim | DRSC15490 | -0.0118 |
| CG33722 + CG18749 | DRSC12674 | -0.695 |
| CG33722 + CG18749 | DRSC15386 | -0.685 |
| CheB53b | DRSC05613 | 1.04 |
| CG31560 | DRSC12136 | -0.818 |
| smog | DRSC00334 | -0.607 |
| smog | DRSC00335 | -2.03 |
| smog | DRSC23053 | 5.05 |
| Dora | DRSC19614 | 1.23 |
| Dora | DRSC19781 | 0.459 |
| Dora | DRSC20034 | -0.931 |
| Dora | DRSC20035 | -0.0604 |
| CG5217 | DRSC15740 | -1.34 |
